Measured values: US20080051457A1, “Optically Active Phthalamide Derivative, Agricultural or Horticultural Insecticide, and Method of Using the Same” (priority 2004, published 2008)
Some of these results come from one statement about several compounds together.

How the values were obtained:
Format in all cases: in vivo
[1] = system: Diamond Back Moth (Plutella xylostella); assay: Test Example 1: insecticidal activity on diamond back moth, cabbage leaf disc dip; conditions: 50 ppm, third instar larvae, eight days after the inoculation
From the text: (§1) A cabbage leaf disc (variety: Shikidori) cut into 7 cm-diameter was dipped for about 30 seconds into a chemical solution prepared by diluting a preparation containing each compound listed in Tables 1 and 2 as an active ingredient to adjust the concentration to 50 ppm. After dried, it was put into a plastic Petri dish with a diameter of 9 cm and inoculated with ten of the third instar larvae of diamond back moths. Eight days after the inoculation, the dead and alive larvae were counted. The mortality was calculated according to the following equation and the insecticidal activity was judged according to the criterion shown below. The test was carried out with three replications under the condition of 25° C., 50-60% RH and 16L-8D photoperiod. [formula]

[2] = system: Smaller Tea Tortrix (Adxophyes Sp.); assay: Test Example 3: insecticidal activity on smaller tea tortrix, tea leaf dip; conditions: 50 ppm, eight days after the inoculation
[3] = system: Common Cutworm (Spodoptera litura); assay: Test Example 2: insecticidal activity on common cutworm, cabbage leaf disc dip; conditions: 50 ppm, second instar larvae, eight days after the inoculation
From the text: as §1, with “second” for “third”, “common cutworm.” for “diamond back moths.”, “calculated” for “calculated according to the following equation”, “in” for “according to”, “same manner as in Test Example 1.” for “criterion shown below.”, “photoperiod.” for “photoperiod. [formula]”

Compound	insecticidal activity judged from mortality [1]	insecticidal activity judged from mortality [2]	insecticidal activity judged from mortality [3]
CSCC(C)NC(=O)c1c(Cl)cccc1C(=O)Nc1ccc2c(c1Cl)C(F)(C(F)(F)F)C(F)(F)O2 (mixture of isomers) [Compound 1-330]	A (Mortality 100%)	A (Mortality 100%)	
C[C@@H](CS(C)(=O)=O)NC(=O)c1c(Cl)cccc1C(=O)Nc1ccc(OC(F)(F)F)cc1Cl [Compound 1-272]	A (Mortality 100%)		A (Mortality 100%)
CSC[C@H](C)NC(=O)c1c(I)cccc1C(=O)Nc1ccc(OC(F)(F)C(F)F)cc1C [Compound 1-39]	A (Mortality 100%)		A (Mortality 100%)
CSC[C@H](C)NC(=O)c1c(I)cccc1C(=O)Nc1ccc(Cl)cc1Cl [Compound 1-63]	A (Mortality 100%)		A (Mortality 100%)
Cc1cc(C(F)(C(F)(F)F)C(F)(F)F)ccc1NC(=O)c1ccccc1C(=O)N[C@@H](C)C[S+](C)[O-] (stereo partly shown) [Compound 1-88]	A (Mortality 100%)		A (Mortality 100%)
CSC[C@H](C)NC(=O)c1c(Cl)cccc1C(=O)Nc1ccc(OC(F)(F)F)cc1C [Compound 1-267]	A (Mortality 100%)	A (Mortality 100%)	
CSC[C@H](C)NC(=O)c1c(I)cccc1C(=O)Nc1ccc(OC(F)(F)F)cc1C [Compound 1-42, (S)-3-iodo-N^1-(2-methyl-4-trifluoromethoxyphenyl)-N^2-(1-methyl-2-methylthioethyl)phthalamide]		A (Mortality 100%)	
Cc1nc(C(C(F)(F)F)C(F)(F)F)ccc1NC(=O)c1cccc(I)c1C(=O)N[C@@H](C)CS(C)(=O)=O [Compound 2-12]	A (Mortality 100%)	A (Mortality 100%)	A (Mortality 100%)
CCSC[C@H](C)NC(=O)c1c(I)cccc1C(=O)Nc1ccc(C(C(F)(F)F)C(F)(F)F)cc1CC [Compound 1-102]	A (Mortality 100%)		A (Mortality 100%)
CSC[C@H](C)NC(=O)c1c(F)cccc1C(=O)Nc1ccc(OC(F)(F)F)cc1Cl [Compound 1-315]	A (Mortality 100%)		
Cc1nc(C(F)(C(F)(F)F)C(F)(F)F)ccc1NC(=O)c1cccc(I)c1C(=O)N[C@@H](C)CS(C)(=O)=O [Compound 2-6]	A (Mortality 100%)		A (Mortality 100%)
Cc1nc(C(F)(C(F)(F)F)C(F)(F)F)ccc1NC(=O)c1cccc(Cl)c1C(=O)N[C@@H](C)CS(C)(=O)=O [Compound 2-15]	A (Mortality 100%)	A (Mortality 100%)	A (Mortality 100%)
CSC[C@H](C)NC(=O)c1c(I)cccc1C(=O)Nc1ccc(C(C(F)(F)F)C(F)(F)F)nc1C [Compound 2-10]	A (Mortality 100%)	A (Mortality 100%)	A (Mortality 100%)
CC(C[S+](C)[O-])NC(=O)c1c(Cl)cccc1C(=O)Nc1ccc2c(c1Cl)C(F)(C(F)(F)F)C(F)(F)O2 (mixture of isomers) [Compound 1-331]	A (Mortality 100%)		A (Mortality 100%)
CSC[C@H](C)NC(=O)c1c(Cl)cccc1C(=O)Nc1ccc(OC(F)(F)F)cc1Br [Compound 1-273]	A (Mortality 100%)		A (Mortality 100%)
CSC[C@H](C)NC(=O)c1ccccc1C(=O)Nc1ccc(C(F)(C(F)(F)F)C(F)(F)F)cc1C [Compound 1-87]	A (Mortality 100%)		A (Mortality 100%)
C[C@@H](C[S+](C)[O-])NC(=O)c1c(I)cccc1C(=O)Nc1ccc(OC(F)(F)F)cc1Cl (stereo partly shown) [Compound 1-49]	A (Mortality 100%)		A (Mortality 100%)
Cc1cc(C(F)(C(F)(F)F)C(F)(F)F)ccc1NC(=O)c1ccc2ccccc2c1C(=O)N[C@@H](C)CS(C)(=O)=O [Compound 1-236]	A (Mortality 100%)	A (Mortality 100%)	
Cc1nc(C(F)(C(F)(F)F)C(F)(F)F)ccc1NC(=O)c1cccc(I)c1C(=O)N[C@@H](C)C[S+](C)[O-] (stereo partly shown) [Compound 2-5]	A (Mortality 100%)		A (Mortality 100%)

Compound	insecticidal activity judged from mortality [1]	insecticidal activity judged from mortality [2]	insecticidal activity judged from mortality [3]
CCSC[C@H](C)NC(=O)c1c(I)cccc1C(=O)Nc1ccc(OC(F)(F)F)cc1Br [Compound 1-57]	A (Mortality 100%)		A (Mortality 100%)
CCS(=O)(=O)C[C@H](C)NC(=O)c1c(I)cccc1C(=O)Nc1ccc(OC(F)(F)F)cc1Br [Compound 1-59]	A (Mortality 100%)		A (Mortality 100%)
Cc1cc(OC(F)(F)C(F)F)ccc1NC(=O)c1cccc(I)c1C(=O)N[C@@H](C)C[S+](C)[O-] (stereo partly shown) [Compound 1-40]	A (Mortality 100%)		A (Mortality 100%)
Cc1cc(OC(F)(F)F)ccc1NC(=O)c1cccc(I)c1C(=O)N[C@@H](C)CS(C)(=O)=O [Compound 1-44, (S)-3-iodo-N′-(2-methyl-4-trifluoromethoxyphenyl)-N^2— (1-methyl-2-methylsulfonylethyl)phthalamide]		A (Mortality 100%)	
Cc1cc(OC(F)(F)F)ccc1NC(=O)c1cccc(I)c1C(=O)N[C@@H](C)C[S+](C)[O-] (stereo partly shown) [Compound 1-43]	A (Mortality 100%)		A (Mortality 100%)
Cc1cc(C(F)(C(F)(F)F)C(F)(F)F)ccc1NC(=O)c1ccccc1C(=O)N[C@@H](C)CS(C)(=O)=O [Compound 1-89]	A (Mortality 100%)		A (Mortality 100%)
C[C@@H](CS(C)(=O)=O)NC(=O)c1c(I)cccc1C(=O)Nc1ccc(C(F)(C(F)(F)F)C(F)(F)F)cc1Cl [Compound 1-224]	A (Mortality 100%)	A (Mortality 100%)	
Cc1cc(C(F)(C(F)(F)F)C(F)(F)F)ccc1NC(=O)c1cccc(F)c1C(=O)N[C@@H](C)CS(C)(=O)=O [Compound 1-80]	A (Mortality 100%)		A (Mortality 100%)
CSC[C@H](C)NC(=O)c1c(Cl)cccc1C(=O)Nc1ccc(C(F)(C(F)(F)F)C(F)(F)F)nc1C [Compound 2-13]	A (Mortality 100%)	A (Mortality 100%)	A (Mortality 100%)
CCc1cc(C(C(F)(F)F)C(F)(F)F)ccc1NC(=O)c1cccc(I)c1C(=O)N[C@@H](C)CS(C)(=O)=O [Compound 1-101]	A (Mortality 100%)		A (Mortality 100%)
Cc1cc(OC(F)(F)C(F)C(F)(F)F)ccc1NC(=O)c1cccc(F)c1C(=O)NC(C)CS(C)(=O)=O (mixture of isomers) [Compound 1-323]	A (Mortality 100%)		
CSC[C@H](C)NC(=O)c1c(I)cccc1C(=O)Nc1ccc(C(F)(C(F)(F)F)C(F)(F)F)nc1C [Compound 2-4]	A (Mortality 100%)		A (Mortality 100%)
C[C@@H](CS(C)(=O)=O)NC(=O)c1c(I)cccc1C(=O)Nc1ccc(Cl)cc1Cl [Compound 1-65]	A (Mortality 100%)		A (Mortality 100%)
CSC[C@H](C)NC(=O)c1c(F)cccc1C(=O)Nc1ccc(C(F)(F)C(F)(F)F)cc1C [Compound 1-306]	A (Mortality 100%)		A (Mortality 100%)
Cc1cc(OC(F)(F)C(F)F)ccc1NC(=O)c1cccc(I)c1C(=O)N[C@@H](C)CS(C)(=O)=O [Compound 1-41]	A (Mortality 100%)		A (Mortality 100%)
CSCC(C)NC(=O)c1c(F)cccc1C(=O)Nc1ccc(OC(F)(F)C(F)C(F)(F)F)cc1C (mixture of isomers) [Compound 1-321]	A (Mortality 100%)		A (Mortality 100%)
C[C@@H](CS(C)(=O)=O)NC(=O)c1c(Cl)cccc1C(=O)Nc1ccc(OC(F)(F)F)cc1Br [Compound 1-275]	A (Mortality 100%)		A (Mortality 100%)
C[C@@H](CS(C)(=O)=O)NC(=O)c1c(F)cccc1C(=O)Nc1ccc(OC(F)(F)F)cc1Cl [Compound 1-317]	A (Mortality 100%)		
